Results as given in US20140357713A1, “ANTIMICROBIAL COMPOUNDS AND METHODS OF USE” (NexMed Holdings, Inc., priority 2012, published 2014).
Counter-ions that a name gives are not always drawn. At least one read-out could not be matched to a standard name with certainty.

Tests used:
[1] = tested on: Pseudomonas aeruginosa (ATCC 27853); test: Time kill study, Example 33 (0 to 5 min); assay type: cell-based; details: 1×MIC, listed as Nex-88, hydrochloride
Method: (§1) Thirty compounds were tested for antimicrobial activity using standard procedures and standard strains for both the minimum inhibitory concentration (MIC) assay and a time kill study. Both the MIC assay and the time kill study were performed according to Clinical and Laboratory Standards Institute (CLSI) guidelines. Three bacteria strains, Escherichia coli (ATCC 25922), Pseudomonas aeruginosa (ATCC 27853), Staphulococcus aureus (ATCC 29213), and two fungus strains, Candida albicans (ATCC 90029) and Aspergillus niger (CMCC 98003), were used in the experiments.
(§2) The viable counts in Log10 CFU/mL at each time point were recorded.
(§3) Time kill studies. Strain suspensions were prepared as described above for the MIC test, and strain suspensions and compound solutions were mixed in the same volume. Samples were removed at specified times including 0 min, 30 sec, 1 min and 5 mins, were diluted in the test medium and streaked on agar. Colonies were counted after 24 to 48 hrs of incubation. […]

[2] = tested on: Staphylococcus aureus (ATCC 29213); test: Time kill study, Example 33 (0 to 5 min); assay type: cell-based; details: 1×MIC
Method: as §1, §2, §3

[3] = tested on: Escherichia coli (ATCC 25922); test: Time kill study, Example 33 (0 to 5 min); assay type: cell-based; details: 1×MIC
Method: as §1, §2, §3

[4] = tested on: Staphulococcus aureus (ATCC 29213); test: Minimum inhibitory concentration (MIC) assay, Example 33; assay type: cell-based, Staphylococcus aureus; details: Table 19 summary; hydrochloride
Method: as §1
(§4) Preparation of cultures. Before the experiment, two days for the bacteria strains and five days for fungus strains, an aliquot was removed from the cultures frozen at −80° C. Medium was added to the surface of an appropriate agar plate and streaked with the aliquot. The plate was incubated for 20 to 24 hrs at 35±2° C. for bacteria or for 5 days at 26-30° C. in incubator for fungus. […]
(§5) For Aspergillus niger, sporulating colonies were covered with RPMI 1640, and a suspension was prepared by gently probing the colonies with the tip of a transfer pipette. […] The MIC was read and recorded according to CLSI guidelines.
(§6) The MIC values for thirty compounds against Escherichia coli, Pseudomonas aeruginosa, Staphulococcus aureus, Candida albicans, and Aspergillus niger were recorded and are presented in Table 3 and Table 4.

[5] = tested on: Escherichia coli (ATCC 25922); test: as above; assay type: cell-based; details: Table 19 summary of Example 33 and Example 35; hydrochloride
Method: as §1, §4, §5, §6

[6] = tested on: Candida albicans (ATCC 90029); test: as above; assay type: cell-based; details: Table 19 summary; hydrochloride
Method: as §1, §4, §5, §6

CCCCCCCCCCCCOC(=O)C(C)N(C)C (centres unmarked) [Nex-05, Dodecyl 2-(dimethylamino)propanoate hydrochloride]
Viable counts, Pseudomonas aeruginosa time kill study [1]: 5.74 Log10 CFU/mL | Viable counts, Staphylococcus aureus time kill study ([2]; 0.5 min, listed as Nex-88, hydrochloride): 6.54 Log10 CFU/mL | Viable counts, Staphylococcus aureus time kill study ([2]; 1 min, listed as Nex-88, hydrochloride): 6.39 Log10 CFU/mL | Viable counts, Staphylococcus aureus time kill study ([2]; 5 min, listed as Nex-88, hydrochloride): 6.4 Log10 CFU/mL | Viable counts, Staphylococcus aureus time kill study ([2]; time 0, hydrochloride): 6.07 Log10 CFU/mL | Viable counts, Staphylococcus aureus time kill study ([2]; time 0, listed as Nex-88, hydrochloride): 6.44 Log10 CFU/mL | Viable counts, Escherichia coli time kill study ([3]; hydrochloride): 5.77 Log10 CFU/mL | Viable counts, Escherichia coli time kill study ([3]; listed as Nex-88, hydrochloride): 5.71 Log10 CFU/mL

CCCCCCCCCCCCOC(=O)CN(C)C [Nex-52, Dodecyl 2-(dimethylamino)acetate hydrochloride]
MIC [4]: 100 µg/mL

CCCCCCCCCCOC(=O)C(C)N(C)C (centres unmarked) [Nex-68, Decyl 2-(dimethylamino)propanoate hydrochloride]
MIC [5]: 1560 µg/mL | MIC [6]: 200 µg/mL
